# Results from article doi:10.1101/2021.02.17.431757.
# The chains behind the UniProt entries cited, without tags or fusion partners. Where a name states a change or a piece, a line headed by the entry shows the natural chain unless it says otherwise.
# UniProt Q92547, whole entry: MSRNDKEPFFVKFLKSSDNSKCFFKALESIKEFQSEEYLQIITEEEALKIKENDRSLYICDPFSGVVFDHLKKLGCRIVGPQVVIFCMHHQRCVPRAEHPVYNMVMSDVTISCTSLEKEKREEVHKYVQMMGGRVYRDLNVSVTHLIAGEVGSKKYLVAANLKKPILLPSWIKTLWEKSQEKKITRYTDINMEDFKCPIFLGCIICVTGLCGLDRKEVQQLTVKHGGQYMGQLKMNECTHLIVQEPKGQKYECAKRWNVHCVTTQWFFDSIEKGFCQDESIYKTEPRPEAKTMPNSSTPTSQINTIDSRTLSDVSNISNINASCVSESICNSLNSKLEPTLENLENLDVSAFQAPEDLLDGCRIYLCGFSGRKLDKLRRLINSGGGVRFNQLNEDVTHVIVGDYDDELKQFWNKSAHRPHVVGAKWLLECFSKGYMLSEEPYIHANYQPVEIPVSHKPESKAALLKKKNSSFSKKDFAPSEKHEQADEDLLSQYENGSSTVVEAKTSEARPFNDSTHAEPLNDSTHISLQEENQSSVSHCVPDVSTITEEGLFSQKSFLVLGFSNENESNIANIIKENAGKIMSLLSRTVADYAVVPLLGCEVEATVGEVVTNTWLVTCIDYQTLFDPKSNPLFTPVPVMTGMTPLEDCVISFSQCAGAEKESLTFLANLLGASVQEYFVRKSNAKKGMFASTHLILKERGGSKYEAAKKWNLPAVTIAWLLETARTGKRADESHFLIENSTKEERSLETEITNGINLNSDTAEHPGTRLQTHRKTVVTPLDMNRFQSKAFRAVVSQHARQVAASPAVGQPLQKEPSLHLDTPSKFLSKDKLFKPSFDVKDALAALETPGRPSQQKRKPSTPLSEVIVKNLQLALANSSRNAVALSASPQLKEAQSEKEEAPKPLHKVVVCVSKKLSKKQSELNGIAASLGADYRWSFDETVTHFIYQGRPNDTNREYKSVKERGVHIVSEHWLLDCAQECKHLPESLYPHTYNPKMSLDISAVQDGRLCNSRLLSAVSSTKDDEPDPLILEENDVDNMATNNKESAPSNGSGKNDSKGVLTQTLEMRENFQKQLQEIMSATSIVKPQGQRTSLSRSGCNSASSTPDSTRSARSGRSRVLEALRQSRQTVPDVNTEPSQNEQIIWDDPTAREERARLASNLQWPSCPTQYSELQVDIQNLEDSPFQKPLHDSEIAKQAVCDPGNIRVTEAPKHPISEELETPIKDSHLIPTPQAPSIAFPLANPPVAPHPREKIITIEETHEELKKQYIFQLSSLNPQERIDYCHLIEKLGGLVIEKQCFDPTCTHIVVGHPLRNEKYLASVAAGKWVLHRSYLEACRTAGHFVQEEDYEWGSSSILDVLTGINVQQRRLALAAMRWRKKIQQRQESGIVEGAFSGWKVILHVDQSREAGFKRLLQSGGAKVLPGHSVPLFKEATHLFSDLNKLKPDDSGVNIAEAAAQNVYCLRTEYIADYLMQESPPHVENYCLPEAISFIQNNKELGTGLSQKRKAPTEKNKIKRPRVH
# UniProt P46934, whole entry: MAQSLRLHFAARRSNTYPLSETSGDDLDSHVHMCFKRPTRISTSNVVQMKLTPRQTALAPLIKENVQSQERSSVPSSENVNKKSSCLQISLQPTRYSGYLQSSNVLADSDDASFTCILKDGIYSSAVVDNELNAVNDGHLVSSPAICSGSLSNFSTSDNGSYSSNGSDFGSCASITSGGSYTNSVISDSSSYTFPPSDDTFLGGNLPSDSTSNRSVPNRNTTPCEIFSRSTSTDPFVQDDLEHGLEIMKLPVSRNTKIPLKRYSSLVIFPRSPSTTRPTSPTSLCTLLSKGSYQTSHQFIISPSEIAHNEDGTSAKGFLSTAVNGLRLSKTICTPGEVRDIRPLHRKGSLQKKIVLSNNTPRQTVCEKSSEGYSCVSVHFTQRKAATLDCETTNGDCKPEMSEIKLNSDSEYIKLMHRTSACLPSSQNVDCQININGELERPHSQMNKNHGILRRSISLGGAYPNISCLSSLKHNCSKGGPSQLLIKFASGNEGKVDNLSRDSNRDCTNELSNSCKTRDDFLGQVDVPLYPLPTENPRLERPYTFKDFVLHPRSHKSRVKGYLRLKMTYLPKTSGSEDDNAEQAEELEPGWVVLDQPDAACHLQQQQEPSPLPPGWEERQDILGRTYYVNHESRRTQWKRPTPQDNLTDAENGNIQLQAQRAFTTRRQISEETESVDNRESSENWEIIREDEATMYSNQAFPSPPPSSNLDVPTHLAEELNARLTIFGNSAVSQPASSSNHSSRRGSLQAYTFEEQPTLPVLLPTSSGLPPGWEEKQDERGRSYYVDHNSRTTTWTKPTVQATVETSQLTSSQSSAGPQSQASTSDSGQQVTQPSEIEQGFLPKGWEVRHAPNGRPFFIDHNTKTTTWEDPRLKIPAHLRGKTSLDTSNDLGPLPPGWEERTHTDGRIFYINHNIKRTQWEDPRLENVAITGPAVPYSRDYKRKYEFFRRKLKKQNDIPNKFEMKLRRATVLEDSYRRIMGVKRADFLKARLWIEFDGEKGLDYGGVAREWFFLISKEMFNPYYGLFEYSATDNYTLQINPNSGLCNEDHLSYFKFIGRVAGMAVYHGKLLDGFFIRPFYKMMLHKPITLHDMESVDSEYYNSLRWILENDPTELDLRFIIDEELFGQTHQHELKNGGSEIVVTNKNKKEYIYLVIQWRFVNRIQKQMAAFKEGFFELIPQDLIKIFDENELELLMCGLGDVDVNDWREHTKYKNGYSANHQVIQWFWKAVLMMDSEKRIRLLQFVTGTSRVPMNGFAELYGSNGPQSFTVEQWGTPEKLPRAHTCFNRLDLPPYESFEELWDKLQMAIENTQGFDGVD
# Read-outs that look alike come from different tables or passages of the source. These are yes or no findings as the source states them, for the method shown. For part of these data: In cells and extracts the contact can be indirect. Some results given as binding are weak or reduced against the parent protein; the word gives no strength.
# Tests used:
# [1] = target: TopBP1, endogenous (human (endogenous in U2OS and N/Tert-1)) (UniProt Q92547); assay: co-IP
# [2] = target: TopBP1, endogenous (human (endogenous in U2OS and N/Tert-1)) (UniProt Q92547); assay: co-IP; remark: listed apart in the source
# [3] = target: TopBP1, endogenous (human (endogenous in U2OS and N/Tert-1)) (UniProt Q92547); assay: co-IP; remark: listed apart in the source
# [4] = target: GST-NEDD4 control protein (UniProt P46934); assay: pull-down
substance,measurement,setting,value
"HPV16 E2 wild type (E2-WT), stably expressed in cells (from UniProt P03120 1-365)",binding,[1],binds
same,binding,[2],binds
"HPV16 E2-S23D, stably expressed in cells (from UniProt P03120 1-365)",binding,[1],binds
same,binding,[2],binds
same,binding,[3],binds
"His-E2-WT (amino acids 1-200), recombinant, phosphorylated by CK2 in vitro (from UniProt P03120 1-200) (domain or fragment)",binding,[4],no binding
